The values that follow come from publication doi:10.1101/212704 (bioRxiv, 2017).

Chains of the proteins cited; added tags and fusions are not shown. Lines headed by an entry give the natural chain unless they say otherwise; changes in a name come on top. A line that says so, or that is headed by a name, gives the form on record, which may keep a tag or linker. Residues count along the entry.
UniProt O60566, residues 1-371: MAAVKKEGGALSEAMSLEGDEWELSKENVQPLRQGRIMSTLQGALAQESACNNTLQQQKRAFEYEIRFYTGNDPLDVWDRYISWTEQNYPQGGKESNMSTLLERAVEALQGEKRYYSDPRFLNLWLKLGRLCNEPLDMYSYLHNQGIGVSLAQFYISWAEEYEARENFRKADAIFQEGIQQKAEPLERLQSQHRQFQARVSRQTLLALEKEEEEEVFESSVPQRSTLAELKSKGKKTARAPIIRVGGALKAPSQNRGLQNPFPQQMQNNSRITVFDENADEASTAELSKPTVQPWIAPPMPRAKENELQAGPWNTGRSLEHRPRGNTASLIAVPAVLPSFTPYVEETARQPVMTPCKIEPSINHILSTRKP
untagged MAD2^L13A (Q13257, form named): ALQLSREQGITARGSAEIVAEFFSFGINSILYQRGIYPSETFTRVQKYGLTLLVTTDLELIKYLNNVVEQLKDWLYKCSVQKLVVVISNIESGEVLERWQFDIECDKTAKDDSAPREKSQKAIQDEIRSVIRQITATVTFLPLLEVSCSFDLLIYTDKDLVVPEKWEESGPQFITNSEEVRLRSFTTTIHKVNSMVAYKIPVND

Substitutions are numbered along the chain they refer to. Where two headings read alike, the source gives them in different places. These are yes or no findings as the source states them, for the method shown. For some of these results: Binding seen in cells or lysates may run through a third protein. Some entries that bind do so weakly or less than the wild type. For some of these results: Tags and fused reporters may be left off the sequences shown.

What all share (experiment): pull-down
For one test, the target named is GST-BUBR1^(1-371) (UniProt O60566).
For another test, the target named is T1, GST-MAD1-CTD (human) (UniProt Q9Y6D9).
T1 sequence: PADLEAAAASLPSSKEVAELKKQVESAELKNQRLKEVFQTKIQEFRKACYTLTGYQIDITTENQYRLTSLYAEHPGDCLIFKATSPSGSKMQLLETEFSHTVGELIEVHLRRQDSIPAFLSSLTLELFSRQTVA

The target in the next test is T2, GST-MAD1-CTD^4A (human) (UniProt Q9Y6D9).
T2 sequence: T1 sequence with S14A, S26A, T40A, T132A

For a further test, the target named is T3, GST-MAD1-NTD (human, UniProt Q9Y6D9 1-485).
T3 sequence (looked up): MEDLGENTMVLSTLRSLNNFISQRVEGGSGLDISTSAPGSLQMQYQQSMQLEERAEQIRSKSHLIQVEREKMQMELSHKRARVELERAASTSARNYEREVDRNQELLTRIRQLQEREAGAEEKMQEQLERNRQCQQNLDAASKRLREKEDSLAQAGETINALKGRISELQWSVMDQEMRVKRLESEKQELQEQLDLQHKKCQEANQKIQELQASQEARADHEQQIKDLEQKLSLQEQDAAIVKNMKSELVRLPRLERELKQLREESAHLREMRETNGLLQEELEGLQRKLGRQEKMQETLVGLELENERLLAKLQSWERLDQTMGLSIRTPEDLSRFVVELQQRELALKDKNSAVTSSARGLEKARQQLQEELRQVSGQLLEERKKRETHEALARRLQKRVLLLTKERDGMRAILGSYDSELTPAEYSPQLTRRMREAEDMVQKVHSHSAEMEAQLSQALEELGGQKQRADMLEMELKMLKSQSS

Take “untagged MAD2^L13A (from UniProt Q13257 2-205)”: the binding result with GST-BUBR1^(1-371) is “binds”.

B1: His-tagged MAD1-CTD (domain or fragment, UniProt Q9Y6D9 585-718)
chain: T1 sequence
In the case of B1, the binding entry with GST-MAD1-CTD (human), with GST-MAD1-CTD^4A (human), with GST-MAD1-NTD and in the test with GST-MAD1-NTD (record 2) was “binds” throughout.

B2: His-tagged MAD1-CTD^4A (domain or fragment, UniProt Q9Y6D9 585-718)
chain: T1 sequence with S14A, S26A, T40A, T132A
For B2, in the test with GST-MAD1-CTD^4A (human), the binding entry was “binds”.

B3: GST-MAD1-MIM (domain or fragment, human, UniProt Q9Y6D9 485-584, looked up)
chain: SSAEQSFLFSREEADTLRLKVEELEGERSRLEEEKRMLEAQLERRALQGDYDQSRTKVLHMSLNPTSVARQRLREDHSQLQAECERLRGLLRAMERGGTV
Consider B3, for which, in the test with GST-MAD1-NTD, the binding entry was “no binding”.
